Measured values taken from PubChem BioAssay AID540256 (National Center for Advancing Translational Sciences (NCATS), 2011).
Hit rate of the full screen: of about 300,000 compounds, about 3,700 (1.2%) were called active. Inconclusive means that the source gave no clear call. Such entries were picked first, then a sample of the others. The call rests on the fitted dose curve; tested in HEK293 cells. Potencies of inconclusive entries are doubtful fits and often do not repeat.
On the % scale 0 is the no-effect control and ±100 the full control effect; potency means the concentration at half of the fitted maximal effect.

Assay: qHTS for Inhibitors of binding or entry into cells for Lassa Virus; further: nearly all actives have a fitted effect of over 50% in size
Conditions: Lassa virus pseudotype entry inhibition, cell reporter; activity change, negative = inhibition: at 37.9 µM (top of the series) unless noted
With CCOC(=O)c1ccc(NC(=O)Nc2ccc(S(N)(=O)=O)cc2)cc1 the “activity change, negative = inhibition” value was inactive: -29% [at 14.3 µM].
For COc1cccc(CN(C)C(=O)c2cccc(S(=O)(=O)N3CCN(Cc4ccccc4)CC3)c2)c1OC, the Potency was inconclusive: 35.5 µM [inhibitor, single point].
In the case of O=C1NCCCN1Cc1ccc(F)cc1, the “activity change, negative = inhibition” value is reported as inactive: -9.66%.
In the case of Cc1ccc(C(C)C)c(OCC(=O)NNC(=O)C(C(C)C)N2C(=O)c3ccccc3C2=O)c1 (stereo not drawn), the “activity change, negative = inhibition” value is reported as inactive: 2.14%.
For O=C1CSC(c2ccc([N+](=O)[O-])cc2)N1c1ccc(O)cc1 (stereo not drawn), the “activity change, negative = inhibition” value was inactive: -22.1%.
With COc1ccc(S(=O)(=O)NCC(c2cccnc2)N2CCN(c3ccc(F)cc3)CC2)cc1C (stereo not drawn) the Potency was inconclusive: 7.08 µM [inhibitor, partial curve, poor fit].
In the case of Cc1ccc(SCCc2ccc(C)nc2)cc1, the “activity change, negative = inhibition” value is reported as inactive: -3.57%.
With Cc1ccc(C(=O)NCC(=O)OC(C)C(=O)NC2CCCc3ccccc32)cc1 (stereo not drawn) the “activity change, negative = inhibition” value was inactive: 10.1%.
For Cc1ccc(-c2cn3cc([N+](=O)[O-])ccc3n2)cc1, the Potency was inconclusive: 3.16 µM [inhibitor, full curve].
In the case of COCCN(CC(=O)NC1CCCCC1)C(=O)/C=C/C(=O)c1ccc(OC)cc1O, the Potency is reported as active: 12.6 µM.
With CCOc1ccc(NC(=O)N2CCC(c3nc4ccccc4[nH]3)CC2)cc1 the “activity change, negative = inhibition” value was inactive: 3.6% [at 46.1 µM].
In the case of Cn1ccnc1CN1CCN(C(=O)c2cc(COc3ccc(F)c(F)c3)on2)CC1, the “activity change, negative = inhibition” value is reported as inactive: 1.62%.
In the case of COC(=O)C1C2C=CC3(CN(Cc4ccco4)C(=O)C13)O2 (stereo not drawn), the “activity change, negative = inhibition” value is reported as inactive: -0.106%.
In the case of COc1ccc(-c2ccc(SCC(=O)NCc3ccco3)nn2)cc1, the Potency is reported as inconclusive: 6.51 µM [activator, single point].
In the case of COC(=O)Cc1ccc(NC(=O)c2ccc3c(c2)C(=O)N(Cc2cccnc2)C3=O)cc1, the “activity change, negative = inhibition” value is reported as inactive: -2.04% [at 46.1 µM].
For Cc1oc2c(c1C(=O)NCc1ccccc1)CCCC2, the “activity change, negative = inhibition” value was inactive: -22.6%.
In the case of Cc1ccc(CNC(=O)CCC(=O)Nc2nnc(C3CCCCC3)s2)cc1, the Potency is reported as inconclusive: 35.5 µM [activator, single point].
In the case of Cc1ncc([N+](=O)[O-])n1CC(=O)Nc1ccc(F)cc1F, the Potency is reported as inconclusive: 0.794 µM [inhibitor, single point].
In the case of Cc1ccc(C(=O)CSc2nsc(C)c2C#N)cc1, the Potency is reported as inconclusive: 2.24 µM [activator, partial curve, poor fit].
With CCc1cccc(C)c1NC(=S)N1CCCC1C(=O)O (stereo not drawn) the “activity change, negative = inhibition” value was inactive: 2.74%.
With COc1cccc(NC(=S)NC(=O)c2cccnc2)c1 the “activity change, negative = inhibition” value was inactive: 0.991% [at 46.1 µM].
For CCn1c2ccccc2c2cc(NC(=O)CSc3nnc(-c4ccccc4)o3)ccc21, the Potency was inconclusive: 15.8 µM [inhibitor, single point].
In the case of COCCNc1ccc([N+](=O)[O-])cc1C(=O)NC1CCCc2ccccc21 (stereo not drawn), the “activity change, negative = inhibition” value is reported as inactive: 5.66%.
In the case of O=C(Nc1nc(-c2ccccc2)cs1)C1CCCCN1S(=O)(=O)c1ccc(Cl)cc1 (stereo not drawn), the Potency is reported as inconclusive: 11.6 µM [inhibitor, partial curve, poor fit].
For CCOC(=O)c1ccccc1Nc1nc2ccc(C)cc2n2nnnc12, the Potency was inconclusive: 3.16 µM [activator, single point].
For Cn1cc(-c2cc3n(n2)CCC(=O)N3CCCC(=O)NCc2ccc(F)cc2)c2ccccc21, the Potency was inconclusive: 12.6 µM [inhibitor, single point].
With CC(=O)c1sc(NC(=O)C2CCN(C(=O)c3ccc(F)cc3)CC2)nc1-c1ccccc1 the Potency was inconclusive: 2.82 µM [inhibitor, partial curve, poor fit].
For CN(C)S(=O)(=O)c1ccc(N2CCCC2)c(C(=O)N2CCN(S(=O)(=O)c3cccc(F)c3)CC2)c1, the Potency was inconclusive: 35.5 µM [inhibitor, partial curve, poor fit].
For CC(=O)Nc1cccc(C#Cc2cncnc2Nc2ccc(OCc3cccc(F)c3)c(Cl)c2)n1, the Potency was inconclusive: 35.3 µM [inhibitor, single point].
With CCCCNC(=O)Nc1ccc(Br)cn1 the “activity change, negative = inhibition” value was inactive: 8.6%.
With Cc1ccc(C(C(=O)NC2CCCCC2)N(C)Cc2ccccc2)cc1 (stereo not drawn) the “activity change, negative = inhibition” value was inactive: -4.12% [at 46.1 µM].
For COc1ccc(S(=O)(=O)N2CC(C)N(C(=O)N3CCOCC3)C2)cc1 (stereo not drawn), the “activity change, negative = inhibition” value was inactive: 0.0184%.
With Nc1c(C(=O)NC2CCCC2)sc2nc(-c3cccs3)ccc12 the “activity change, negative = inhibition” value was inactive: 28.7%.
With Cc1ccc(C)c(NC(=O)C2Cc3ccccc3CN2C(=O)OCc2ccccc2)c1 (stereo not drawn) the Potency was inconclusive: 1.26 µM [inhibitor, single point].
For CC1(C)CC(=O)c2cc(OCC(=O)N3CCCCCC3)ccc2O1, the “activity change, negative = inhibition” value was inactive: -9.34%.
In the case of CC1CCCN(S(=O)(=O)c2ccc3[nH]c4c(c3c2)CCCC4)C1 (stereo not drawn), the Potency is reported as inconclusive: 11.2 µM [inhibitor, partial curve, poor fit].
In the case of CC1=NN(C(N)=S)C(=O)C1N=Nc1ccc([N+](=O)[O-])cc1 (stereo not drawn), the “activity change, negative = inhibition” value is reported as inactive: 29.7%.
For O=C(Cc1ccc(Cl)cc1)Nc1ccc(NC(=O)c2ccccc2)cc1, the Potency was inconclusive: 3.16 µM [inhibitor, partial curve, poor fit].
In the case of COc1ccc(OC)c(NC(=O)c2oc3c(c2C)C(O)CC(C)(C)C3)c1 (stereo not drawn), the Potency is reported as inconclusive: 35.5 µM [inhibitor, single point].
With Cn1c(=O)c(-c2ccccc2)cc2ccccc21 the “activity change, negative = inhibition” value was inactive: 12% [at 46.1 µM].
For CCc1ccc(/C=N/NC(=O)c2c[nH]c3ccccc23)s1, the Potency was inconclusive: 1.41 µM [inhibitor, partial curve, poor fit].
With CCOc1cc(-c2c(C)c(CC)nc(N)c2C#N)ccc1O the Potency was inconclusive: 35.5 µM [inhibitor, single point].
With CCOC(=O)CC(=O)CSc1ncnc2c1nnn2-c1ccc(OC)cc1 the “activity change, negative = inhibition” value was inactive: -17.5%.
For O=C(/C=C/c1ccco1)N1CCc2ccccc21, the Potency was inconclusive: 11.2 µM [inhibitor, single point].
With COc1ccc(N(CC(=O)Nc2ccc(Cc3ccncc3)cc2)S(=O)(=O)c2ccccc2)cc1 the Potency was inconclusive: 35.5 µM [inhibitor, single point].
In the case of Cc1ccc2oc3c(c(=O)c2c1)C(c1ccccc1F)N(c1ccccn1)C3=O (stereo not drawn), the “activity change, negative = inhibition” value is reported as inactive: 3.51% [at 46.1 µM].
In the case of Cc1ccc(OCC(=O)N2CCCCCCC2)cc1, the “activity change, negative = inhibition” value is reported as inactive: 18.5%.
For NNC(=O)c1cccn(Cc2cccc(C(F)(F)F)c2)c1=O, the Potency was inconclusive: 5.01 µM [inhibitor, partial curve, poor fit].
For COc1ccc(C(=O)NCC(c2cccs2)N2CCc3ccccc32)c(OC)c1 (stereo not drawn), the Potency was inconclusive: 25.1 µM [inhibitor, single point].
For CN1CCN(c2ccccc2NC(=O)c2ccc(Br)o2)CC1, the “activity change, negative = inhibition” value was inactive: 6.22%.
In the case of CCn1c(SCC(=O)Nc2cc3oc4ccccc4c3cc2OC)nnc1-c1cccs1, the Potency is reported as inconclusive: 23.1 µM [inhibitor, partial curve, poor fit].
For O=S(=O)(c1ccccc1)N1CCC(O)(CSc2ccc(Cl)cc2)CC1, the Potency was inconclusive: 12.6 µM [inhibitor, partial curve].
In the case of O=C(CSc1nc2cc(Cl)ccc2o1)c1cccs1, the Potency is reported as inconclusive: 10 µM [activator, partial curve, poor fit].
For Cc1cc(=O)oc2cc(O[C@@H]3O[C@H](CO)[C@H](O)[C@H](O)[C@H]3O)ccc12, the “activity change, negative = inhibition” value was inactive: -22.1%.
For Cc1ccc(NC(=O)c2ccccc2)cc1, the Potency was inconclusive: 6.51 µM [inhibitor, partial curve, poor fit].
For CC1=C(C(=O)OCC2CCCO2)C(c2ccncc2)C2=C(CC(C)(C)CC2=O)N1 (stereo not drawn), the Potency was inconclusive: 0.259 µM [activator, single point].
In the case of O=C1N[C@H](Cc2ccccc2)C(=O)N1Cc1cccc2ccccc12, the Potency is reported as inconclusive: 5.96 µM [inhibitor, single point].
With Cc1cc(F)ccc1S(=O)(=O)N1CCCOC1CNC(=O)C(=O)NCCc1c[nH]c2ccccc12 (stereo not drawn) the Potency was inconclusive: 35.5 µM [inhibitor, single point].
For CCOC(=O)c1cnc(SCc2nc(N)nc(Nc3ccc(C)cc3)n2)nc1N, the Potency was inconclusive: 8.91 µM [inhibitor, partial curve, poor fit].
For Cc1nnc(SCC(=O)NCC2COc3ccccc3O2)s1 (stereo not drawn), the “activity change, negative = inhibition” value was inactive: 9.1%.
For C[C@H](NS(=O)(=O)c1ccccc1F)C(=O)OCC(=O)Nc1ccc2c(c1)OCCO2, the Potency was inconclusive: 11.2 µM [activator, partial curve, poor fit].
In the case of Cc1cccc(C)c1NC(=O)CSCC(=O)O, the “activity change, negative = inhibition” value is reported as inactive: -0.221%.
With CCC(=O)c1ccc(Oc2ccc(C(=O)c3ccc(C)cc3)cc2[N+](=O)[O-])cc1 the Potency was inconclusive: 1.64 µM [inhibitor, partial curve].
For CCOc1ccccc1C(=O)Nc1ccc(S(=O)(=O)Nc2nccc(C)n2)cc1, the “activity change, negative = inhibition” value was inactive: -9.32% [at 46.1 µM].
In the case of CC1CCN(c2oc(-c3ccccc3Cl)nc2C#N)CC1, the “activity change, negative = inhibition” value is reported as inactive: -13.2%.
For Cc1nc(-c2cccc(C(F)(F)F)c2)sc1C(=O)O, the “activity change, negative = inhibition” value was inactive: -2.04%.
With NC(=O)C(c1ccc(Br)cc1)c1ccc(C(=O)c2ccccc2)cc1 (stereo not drawn) the Potency was inconclusive: 20 µM [inhibitor, single point].
In the case of COc1ccc(S(=O)(=O)N2CCCCC2)cc1NC(=O)Cc1c[nH]c2ccccc12, the Potency is reported as inconclusive: 2 µM [inhibitor, full curve, poor fit].
With CCOC(=O)c1c(C)[nH]c(C(=O)OCC(=O)N2c3ccccc3CC2C)c1C (stereo not drawn) the Potency was inconclusive: 32.6 µM [inhibitor, single point].
For O=C1c2ccccc2NC(c2ccco2)N1NS(=O)(=O)c1ccccc1 (stereo not drawn), the Potency was inconclusive: 35.5 µM [inhibitor, partial curve, poor fit].
For Cc1ccc(CSCCNC(=O)CN(c2cc(C)ccc2C)S(C)(=O)=O)cc1, the Potency was inconclusive: 10 µM [inhibitor, partial curve].
For C/C(N)=C(/C#N)C(=O)CSc1ccc2c(c1)OCCO2, the Potency was inconclusive: 0.112 µM [activator, full curve, poor fit].
In the case of COc1ccc(-c2nn(-c3ccccc3)cc2C(=O)N2CCN(C(=O)c3ccco3)CC2)cc1, the Potency is reported as inconclusive: 35.5 µM [inhibitor, partial curve, poor fit].
